Test results: PMC8233386
These are yes or no findings as the source states them, for the method shown. Binding seen in cells or lysates may run through a third protein. Some results given as binding are weak or reduced against the parent protein; the word gives no strength.

Amino acid sequences for entries named in this document (tags omitted).
UniProt P35222: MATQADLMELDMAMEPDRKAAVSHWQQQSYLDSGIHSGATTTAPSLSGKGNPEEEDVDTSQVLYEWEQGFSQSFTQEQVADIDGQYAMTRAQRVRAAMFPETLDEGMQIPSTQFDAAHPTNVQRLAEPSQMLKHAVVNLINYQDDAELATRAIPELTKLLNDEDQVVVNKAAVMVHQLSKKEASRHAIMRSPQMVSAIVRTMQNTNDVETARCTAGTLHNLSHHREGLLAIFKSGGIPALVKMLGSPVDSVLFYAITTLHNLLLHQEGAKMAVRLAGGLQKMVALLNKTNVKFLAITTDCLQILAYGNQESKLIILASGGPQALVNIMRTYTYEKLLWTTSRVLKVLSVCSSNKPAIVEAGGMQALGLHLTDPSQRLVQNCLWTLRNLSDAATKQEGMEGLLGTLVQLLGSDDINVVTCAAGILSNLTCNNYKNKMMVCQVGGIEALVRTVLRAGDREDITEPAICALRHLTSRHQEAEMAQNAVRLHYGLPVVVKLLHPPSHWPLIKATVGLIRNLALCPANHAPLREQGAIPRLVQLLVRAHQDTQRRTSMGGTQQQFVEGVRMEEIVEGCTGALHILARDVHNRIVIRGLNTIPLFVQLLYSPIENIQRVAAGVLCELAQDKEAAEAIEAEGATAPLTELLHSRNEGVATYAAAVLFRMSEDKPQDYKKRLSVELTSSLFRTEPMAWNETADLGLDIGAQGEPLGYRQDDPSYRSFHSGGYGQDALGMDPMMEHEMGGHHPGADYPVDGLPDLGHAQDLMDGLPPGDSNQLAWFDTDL
UniProt Q9NQB0: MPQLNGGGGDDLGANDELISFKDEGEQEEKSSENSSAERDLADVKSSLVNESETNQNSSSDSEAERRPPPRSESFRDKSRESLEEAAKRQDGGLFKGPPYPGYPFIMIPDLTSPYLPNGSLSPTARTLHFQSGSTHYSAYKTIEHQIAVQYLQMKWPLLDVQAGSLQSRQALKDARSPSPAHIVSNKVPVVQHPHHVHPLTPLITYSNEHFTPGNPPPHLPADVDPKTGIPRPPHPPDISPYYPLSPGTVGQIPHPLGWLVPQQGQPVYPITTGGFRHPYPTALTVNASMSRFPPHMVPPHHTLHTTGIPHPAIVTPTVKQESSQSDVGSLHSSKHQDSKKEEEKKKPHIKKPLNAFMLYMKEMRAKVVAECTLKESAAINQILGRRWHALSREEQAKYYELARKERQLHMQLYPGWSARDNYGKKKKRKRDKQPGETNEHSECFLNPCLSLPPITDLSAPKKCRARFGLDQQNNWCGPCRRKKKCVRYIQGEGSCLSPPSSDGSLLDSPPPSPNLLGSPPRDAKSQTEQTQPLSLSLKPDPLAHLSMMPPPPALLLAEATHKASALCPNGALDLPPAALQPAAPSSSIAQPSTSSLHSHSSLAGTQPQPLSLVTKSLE

T1: CT45A1 (UniProt Q5HYN5)
T1 sequence: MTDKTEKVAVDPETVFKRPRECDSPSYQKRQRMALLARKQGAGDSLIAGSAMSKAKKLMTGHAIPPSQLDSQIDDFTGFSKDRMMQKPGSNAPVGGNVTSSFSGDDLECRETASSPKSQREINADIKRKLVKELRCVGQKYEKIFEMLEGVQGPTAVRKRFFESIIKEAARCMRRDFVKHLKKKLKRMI


Key:
CT45A1 [1] = target: T1, CT45A1; assay: co-IP; Co-IP in nuclear extract (Fig. 6C, D); precipitating antibody and cells not stated
CT45A1 [2] = target: T1, CT45A1; assay: co-IP; Co-IP with anti-CT45A1 antibody (Fig. 6F); in nucleus
flag-β-catenin = flag-β-catenin (UniProt P35222); assay: co-IP; Co-IP with anti-flag antibody (flag-β-catenin), under CT45A1 overexpression (Fig. 6E); in nucleus

binding (CT45A1 [1]) | binding (CT45A1 [2]) | binding (flag-β-catenin) | Molecule
binds | binds | – | TCF4 (from UniProt Q9NQB0 1-619)
binds | binds | – | β-catenin (from UniProt P35222 1-781)
– | – | binds | CT45A1 (protein, UniProt Q5HYN5 1-189) MTDKTEKVAVDPETVFKRPRECDSPSYQKRQRMALLARKQGAGDSLIAGSAMSKAKKLMTGHAIPPSQLDSQIDDFTGFSKDRMMQKPGSNAPVGGNVTSSFSGDDLECRETASSPKSQREINADIKRKLVKELRCVGQKYEKIFEMLEGVQGPTAVRKRFFESIIKEAARCMRRDFVKHLKKKLKRMI
